Over roughly 3,200 compounds, “TSA(without NAD+) / Primary screening (TSA) / delta Tm (K)” has its median near -0.07; the highest 2% begin near 0.37. Some of the results follow.
Target: NAD-dependent deacetylase Sirtuin 1 (human, UniProt Q96EB6)
Test: primary screen, delta tm
Design: single well (n = 1)
Settings: 10 µM
Procedure: A total of 3,192 compounds extracted from the proposed lists were first screened by thermal shift assay (TSA), which determined a melting temperature shift (ΔTm) of Sirtuin 1 upon the addition of a test compound at a concentration of 10 µM (n = 1) with primary hit criteria of ΔTm > 0.45 K or ΔTm < −1.5 K. Primary hits (48 compounds) were retested in the same assay at three concentrations (5, 10, 20 µM, n = 4) for hit confirmation and for dose-dependency check. Secondary hits (41 compounds) were checked their selectivity for Sirtuin 1 based on counterscreening on unrelated protein targets (bovine carbonic anhydrase (CA) and recombinant SH2 domain of hABL1 kinase (ABL1)) at three different concentrations (5, 10, 20 µM, n = 4), which yielded 38 hit compounds, hereafter referred to as TSA hits. The TSA screening above was conducted in the absence of NAD+.

The chains behind the UniProt entries cited, without tags or fusion partners. Residues count along the entry.
UniProt Q96EB6, 2-747 limits assumed: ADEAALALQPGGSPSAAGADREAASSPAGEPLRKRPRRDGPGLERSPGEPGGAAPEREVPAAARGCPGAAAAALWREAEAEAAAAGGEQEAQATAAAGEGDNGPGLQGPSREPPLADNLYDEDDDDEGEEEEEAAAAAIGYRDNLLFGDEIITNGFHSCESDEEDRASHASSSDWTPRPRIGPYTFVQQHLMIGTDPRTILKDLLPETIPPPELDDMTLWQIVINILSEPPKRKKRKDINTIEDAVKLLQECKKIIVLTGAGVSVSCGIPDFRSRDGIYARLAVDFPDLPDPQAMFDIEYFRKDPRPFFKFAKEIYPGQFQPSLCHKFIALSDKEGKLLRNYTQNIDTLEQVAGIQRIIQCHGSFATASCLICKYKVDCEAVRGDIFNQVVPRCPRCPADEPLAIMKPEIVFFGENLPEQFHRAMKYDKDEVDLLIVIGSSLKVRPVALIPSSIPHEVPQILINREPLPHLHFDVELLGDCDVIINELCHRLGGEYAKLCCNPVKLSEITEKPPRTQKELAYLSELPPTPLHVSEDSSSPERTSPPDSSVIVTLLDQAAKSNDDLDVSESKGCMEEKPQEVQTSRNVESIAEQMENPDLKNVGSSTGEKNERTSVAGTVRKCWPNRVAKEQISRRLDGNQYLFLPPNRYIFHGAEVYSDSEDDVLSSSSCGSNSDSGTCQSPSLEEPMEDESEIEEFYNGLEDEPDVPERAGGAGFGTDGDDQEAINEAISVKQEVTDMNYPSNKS

Row | SMILES | TSA(without NAD+) / Primary screening (TSA) / delta Tm (K)
1 | CC(=O)N(c1nn(CN2CCN(c3ccc(C(N)=O)cn3)CC2)c(=S)s1)C1CC1 | -0.23
2 | O=C1CCc2c(OCc3cc(=O)n4ccccc4n3)cccc21 | -0.17
3 | Cc1ccc(-c2cc(C(=O)Nc3ccc(C(N)=O)cc3)c3ccccc3n2)c(C)c1 | -0.22
4 | O=C(CCl)c1c(-c2ccccc2)[nH]c2ccccc12 | -0.04
5 | COC(=O)c1cc(Br)ccc1NC(=O)c1cccc(S(=O)(=O)N(C)c2ccc(C)cc2)c1 | -0.01
6 | COc1cccc(-c2nc(CSc3nnc(CN4CCCCC4)n3-c3ccc(F)cc3)cs2)c1 | -0.11
7 | COc1cccc(C(=O)C2=C(O)C(=O)N(CCCN3CCOCC3)C2c2ccccc2)c1 (stereo not shown) | -0.11
8 | CC(C(=O)NC(c1ccccc1)C1CC1)n1cnc2ccccc21 (stereo not shown) | -0.08
9 | O=C(Oc1ccc2oc3ccccc3c2c1)C1CC1 | -0.17
10 | CC(C)c1noc2ncc(C(=O)Nc3cc(C(N)=O)ccc3N3CCCC3)cc12 | 0.06
11 | O=C(O)[C@@H]1C[C@H]1C(=O)O | -0.07
12 | O=C(CCN1C(=O)NC2(CCCCC2)C1=O)NC1C2CC3CC(C2)CC1C3 (stereo not shown) | 0.07
13 | O=c1oc2ccc3ccccc3c2cc1-c1nc2ccccc2[nH]1 | -0.21
14 | O=S1(=O)CCC(CSc2nnc(NCC3CCCO3)s2)CC1 (stereo not shown) | -0.18
15 | Cc1ccc(N2C(=O)CN=C2S)cc1 | -0.14
16 | O=C(O)c1ccc2[nH]c3c(c2c1)CCCCC3 | -0.02
17 | O=S1(=O)CCC(N2CCN(c3ncnc4c3oc3ccccc34)CC2)C1 (stereo not shown) | -0.11
18 | NC(=O)c1cc(NC(=O)c2nn(-c3ccc(F)cc3)c3c2CCCC3)ccc1Cl | -0.04
19 | COCCNc1nnc(SCc2cc(=O)oc3c(C)c(O)ccc23)s1 | -0.74
20 | O=C1NC(=O)C2(CCN(C(=O)C34CC5CC(CC(Br)(C5)C3)C4)CC2)N1 | -0.08
21 | Cc1cccc(C(=O)Nc2ccccc2Oc2ccccc2)c1 | -0.13

Row | SMILES | TSA(without NAD+) / Primary screening (TSA) / delta Tm (K)
22 | Cc1cccc(NC(=O)CN2CCN(C(=O)c3ccccc3Oc3ccccc3)CC2)c1C | -0.12
23 | NC(=O)C1CCN(c2cc(N3CCCC3)ncn2)C1 (stereo not shown) | -0.02
24 | CC(CNC(=O)c1cccc(Nc2ncccn2)c1)N1CCOCC1 (stereo not shown) | 0.13
25 | Cc1ccc(N(C)S(=O)(=O)c2cccc(C(N)=O)c2)cc1 | -0.11
26 | CC(OC(=O)CC(NC(=O)OC(C)(C)C)C1CC1)c1cnc2ccccc2c1 (stereo not shown) | -0.12
27 | CC(C)C(C)Nc1ncnc2ccsc12 (stereo not shown) | -0.22
28 | Cc1ccc(C23CC4CC(CC(C(=O)OCC(=O)NC(=O)NCc5ccccc5)(C4)C2)C3)cc1 | 0.29
29 | Cc1cc(N2CCN(c3ncc(C(F)(F)F)cc3Cl)CC2)n2ncnc2n1 | 0.22
30 | COc1cccc(C2C(C(=O)c3ccc(F)cc3)=C(O)C(=O)N2CCCN2CCOCC2)c1OC (stereo not shown) | -0.03
31 | O=C1NC(=S)NC(=O)C1=Cc1cc2ccccc2[nH]c1=O | 0.07
32 | O=C1/C(=C\c2ccc(Br)cc2F)Cc2ccccc21 | -0.28
33 | NCC1(O)CCC1 | -0.18
34 | CCOC(=O)N1CCN(CCC(=O)Nc2ccc(C(C)=O)cc2)CC1 | -0.03
35 | NC(=O)c1ccccc1NC(=O)C1CC1 | -0.13
36 | O=C(COC(=O)Cc1coc2cc(O)ccc12)Nc1cccc2ccccc12 | -0.08
37 | COc1ccc(N(C)S(=O)(=O)c2cccc(C(=O)NNC(=O)OC(C)(C)C)c2)cc1 | -0.21
38 | O=C(CSc1nnc(NCc2ccco2)s1)Nc1nc2c(F)c(F)c(F)cc2s1 | 0.08
39 | O=C(NNC1c2ccccc2-c2ccccc21)c1ccc2ccccc2n1 | -0.18
40 | COC(=O)/C=C1/NC(=O)CS1 | -0.03
41 | CCOC(=O)c1cn[nH]c1N | -0.13
42 | COC(=O)c1ccc2[nH]c(=O)[nH]c2c1 | -0.18

Row | SMILES | TSA(without NAD+) / Primary screening (TSA) / delta Tm (K)
43 | c1ccc2c(c1)oc1c(N3CCCC3)ncnc12 | -0.11
44 | NC(=O)CC(Nc1ncncc1Br)C1CCCCC1 (stereo not shown) | -0.23
45 | Cc1[nH]c2ccccc2c1C1CCN(C(=O)c2n[nH]c3c2CCC3)CC1 | 0.15
46 | Cn1cc(S(=O)(=O)NCC2CCN(c3ccc(F)cc3)C2)cc1C(=O)O (stereo not shown) | -0.08
47 | CS(=O)(=O)Nc1ccc(C(=O)/C=C/c2ccc3c(c2)CCO3)cc1 | -0.05
48 | CCc1cc2c(N3CCC(C(N)=O)CC3)nc(C)nc2s1 | -0.22
49 | Cc1ccc(-c2nnc(NC(=O)COc3cc(C)cc(C)c3)[nH]2)cc1 | -0.08
50 | CC(=O)Nc1ccc(CNCc2ccccc2CN2CCCC2)cc1 | -0.12
51 | CCOCC(NC(=O)N1CCN(C(=O)c2cc3ccccc3[nH]2)CC1)C(C)C (stereo not shown) | -0.11
52 | COc1ccccc1NC(=O)COc1ccc(C(=O)OCC(=O)NC23CC4CC(CC(C4)C2)C3)cc1OC | 0.08
53 | CC1CN(C(=O)/C=C/c2ccc(C(=O)O)cc2)CC(C)(C)O1 (stereo not shown) | 0.16
54 | Cc1nc(/C=C/C(=O)NC(C)C(=O)NCc2ccco2)cs1 (stereo not shown) | -0.02
55 | CC(N)C(N)=O (stereo not shown) | -0.23
56 | O=C(Cc1ccc(-c2ccccc2)cc1)Nc1cccc(S(=O)(=O)N2CCOCC2)c1 | 0.07
57 | N#Cc1c(NC(=O)c2cnc3ccccc3n2)sc2c1CCCCC2 | -0.18
58 | COC1CCCC1NC(=O)Cc1sc(S)nc1C (stereo not shown) | -0.22
59 | Cc1ccc(N(C)S(=O)(=O)c2cccc(C(=O)OCc3nnsc3Cl)c2)cc1 | -0.05
60 | Cn1ccc(NC(=O)C2CC(=O)N(c3ccc4c(c3)OCO4)C2)n1 (stereo not shown) | -0.13
61 | COc1ccc(CN2C(=O)/C(=C/NNC(=O)CC34CC5CC(CC(C5)C3)C4)c3ccccc3C2=O)cc1 | 0.09

From compound 58 up to 61, as listed above:
Row | SMILES | TSA(without NAD+) / Primary screening (TSA) / delta Tm (K)
58 | COC1CCCC1NC(=O)Cc1sc(S)nc1C (stereo not shown) | -0.22
59 | Cc1ccc(N(C)S(=O)(=O)c2cccc(C(=O)OCc3nnsc3Cl)c2)cc1 | -0.05
60 | Cn1ccc(NC(=O)C2CC(=O)N(c3ccc4c(c3)OCO4)C2)n1 (stereo not shown) | -0.13
61 | COc1ccc(CN2C(=O)/C(=C/NNC(=O)CC34CC5CC(CC(C5)C3)C4)c3ccccc3C2=O)cc1 | 0.09

From article PMC6925144, “A prospective compound screening contest identified broader inhibitors for Sirtuin 1” (Scientific Reports, 2019)
